US12491217B2, “Compositions and methods for promoting healthy neural development in an unborn baby” (The Regents of the University of California, priority 2019, dated 2025)

Assay: Metabolomics of fetal brain at E14.5
Format: in vivo, C57Bl/6J mice
Conditions: metabolite level in E14.5 fetal brain; for fold of change ABX/SPF: ANOVA contrast ABX/SPF; for fold of change GF/ABX: ANOVA contrast GF/ABX; for fold of change GF/SPF: ANOVA contrast GF/SPF; for fold of change GF/Sp: ANOVA contrast GF/Sp; for fold of change Sp/ABX: ANOVA contrast Sp/ABX; for fold of change Sp/SPF: ANOVA contrast Sp/SPF

SMILES | fold of change ABX/SPF | fold of change GF/ABX | fold of change GF/SPF | fold of change GF/Sp | fold of change Sp/ABX | fold of change Sp/SPF
OCC1OC(OC2C(CO)OC(OC3C(CO)OC(OC4C(CO)OC(O)C(O)C4O)C(O)C3O)C(O)C2O)C(O)C(O)C1O (centres unmarked) [compound 1028] | 0.58 | 1.04 | 0.61 | 0.84 | 1.24 | 0.72
OCC1OC(OC2C(CO)OC(OC3C(CO)OC(O)C(O)C3O)C(O)C2O)C(O)C(O)C1O (centres unmarked) [compound 1030] | 0.53 | 1.14 | 0.61 | 0.88 | 1.30 | 0.69
OCC1OC(OC2C(CO)OC(O)C(O)C2O)C(O)C(O)C1O (centres unmarked) [compound 1033] | 0.52 | 1.31 | 0.69 | 1.02 | 1.28 | 0.67
O=C(CO)[C@@H](O)[C@H](O)[C@H](O)CO [compound 1073] | 0.64 | 1.66 | 1.06 | 1.20 | 1.38 | 0.88
OCC1OC(O)C(O)C(O)C1O (centres unmarked) [compound 1079] | 0.56 | 1.56 | 0.87 | 1.40 | 1.11 | 0.62
O=P(O)(O)OC1OC(CO)C(O)C(O)C1O (centres unmarked) [compound 1090] | 0.38 | 1.71 | 0.64 | 0.98 | 1.75 | 0.66
O=C(O)C(O)C(O)C(O)C(O)CO (centres unmarked) [compound 1099] | 0.74 | 0.99 | 0.74 | 0.96 | 1.03 | 0.77
O=C(O)C1OC(OP(=O)(O)OP(=O)(O)OCC2OC(n3ccc(=O)[nH]c3=O)C(O)C2O)C(O)C(O)C1O (centres unmarked) [compound 1109] | 0.89 | 1.01 | 0.91 | 0.92 | 1.10 | 0.98
CC1OC(OP(=O)(O)OP(=O)(O)OCC2OC(n3cnc4c(=O)[nH]c(N)nc43)C(O)C2O)C(O)C(O)C1O (centres unmarked) [compound 1111] | 0.39 | 1.61 | 0.62 | 1.05 | 1.53 | 0.59
CC(=O)NC1C(OP(=O)(O)OP(=O)(O)OCC2OC(n3ccc(=O)[nH]c3=O)C(O)C2O)OC(CO)C(O)C1O (centres unmarked) [compound 1115] | 0.81 | 1.05 | 0.85 | 0.96 | 1.10 | 0.89
CC(=O)NC1C(O)CC(OP(=O)(O)OCC2OC(n3ccc(N)nc3=O)C(O)C2O)(C(=O)O)OC1C(O)C(O)CO (centres unmarked) [compound 1116] | 0.68 | 1.09 | 0.74 | 1.02 | 1.07 | 0.73
N[C@H]1C(O)O[C@H](COP(=O)(O)O)[C@@H](O)[C@@H]1O (some centres unmarked) [compound 1123] | 0.50 | 1.55 | 0.78 | 0.92 | 1.68 | 0.84
O=CC(O)C(O)C(O)C(O)C(=O)O (centres unmarked) [compound 1127] | 0.83 | 1.03 | 0.85 | 0.99 | – | 0.86
CC(=O)N[C@H]1C(O)O[C@H](COP(=O)(O)O)[C@@H](O)[C@@H]1O (some centres unmarked) [compound 1131] | 0.53 | 1.13 | 0.59 | 1.12 | 1.00 | 0.53
CC(=O)N[C@H]1C(OP(=O)(O)O)O[C@H](CO)[C@@H](O)[C@@H]1O (some centres unmarked) [compound 1132] | 1.10 | 0.73 | 0.80 | 0.98 | 0.74 | 0.82
CC(=O)N[C@H]1[C@H]([C@H](O)[C@H](O)CO)O[C@](O)(C(=O)O)C[C@@H]1O [compound 1138] | 0.84 | 0.95 | 0.80 | 0.93 | 1.03 | 0.87
CC(=O)N[C@@H]1[C@@H](O)[C@H](O)[C@@H](CO)O[C@H]1NC(=O)C[C@H](N)C(=O)O [compound 1149] | 0.80 | 1.03 | 0.82 | 0.99 | 1.03 | 0.82
O=C(O)C(O)C(O)CO (centres unmarked) [compound 1150] | 0.74 | 1.04 | 0.77 | 1.01 | 1.02 | 0.76
O=C(O)CC(O)(CC(=O)O)C(=O)O [compound 1157] | 0.94 | 1.18 | 1.10 | 1.07 | 1.10 | 1.03
O=C(O)CCC(=O)C(=O)O [compound 1163] | 1.11 | 1.21 | 1.35 | 1.16 | 1.04 | 1.16
C[N+](C)(C)CC(CC(=O)[O-])OC(=O)CCC(=O)O (centres unmarked) [compound 1165] | 0.75 | 0.94 | 0.71 | 1.09 | 0.87 | 0.65
O=C(O)CCC(=O)O [compound 1166] | 1.11 | 1.23 | 1.37 | 1.33 | 0.93 | 1.03
O=C(O)/C=C/C(=O)O [compound 1167] | 0.78 | 0.99 | 0.77 | 0.98 | 1.01 | 0.78
O=C(O)CC(O)C(=O)O (centres unmarked) [compound 1169] | 0.81 | 0.98 | 0.80 | 0.90 | 1.09 | 0.88
CC(=O)OP(=O)(O)O [compound 1181] | 0.93 | 1.16 | 1.08 | 1.00 | 1.16 | 1.08
O=P(O)(O)O [compound 1183] | 0.89 | 0.78 | 0.70 | 0.76 | 1.02 | 0.92
CCCCCC(=O)O [compound 1201] | 1.09 | 0.87 | 0.95 | 0.81 | 1.08 | 1.18
